# This is one part of the list.
# By UniProt entry, the sequences of proteins in these tests, tags left out.
# UniProt Q0JBA9, entry or part of it: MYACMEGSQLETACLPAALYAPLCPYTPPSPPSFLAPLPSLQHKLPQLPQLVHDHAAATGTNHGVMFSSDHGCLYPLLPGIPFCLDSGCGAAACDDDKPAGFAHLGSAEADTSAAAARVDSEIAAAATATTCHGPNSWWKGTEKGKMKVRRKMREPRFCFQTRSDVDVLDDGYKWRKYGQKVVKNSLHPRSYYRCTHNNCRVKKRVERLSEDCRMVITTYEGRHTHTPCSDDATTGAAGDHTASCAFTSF
# Target: OsWRKY34 (Oryza sativa, UniProt Q0JBA9 1-250)
# Assay: protein-binding microarray (RPBM); PBS, 2% BSA, 51.3 ng/ul salmon testes DNA, 50 uM zinc acetate, 200 nM TF, 25 C, 1 h; high values mean tight binding
# Settings: protein: recombinant; tags: N-terminal polyhistidine and DsRed monomer fusion (pET32a); label: CyDye5-dUTP incorporated in the synthesized complementary strand; 3' TTTTT single-stranded linker to array surface; dsDNA, one strand shown
# Outline: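 For the binding signal, per-feature fluorescence intensity was read in arbitrary units on an Axon 4000B scanner. Before scanning, a 2% BSA-blocked custom Agilent array made double-stranded with Cy5-dUTP was washed after 1 h at 25 °C with 200 nM protein and 50 µM zinc acetate. The proteins were Ni–NTA-purified transcription factors with N-terminal polyhistidine and DsRed fusions, expressed in E. coli BL21-CodonPlus.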
row,Sequence,binding signal
1,CAGTTCAGTCGTCGTCTTCCTCCTCCTAACCTCCAGCTATCGGAGTCACCTAGTGCAG,9220 fluorescence intensity (a.u.)
2,GCTCCATTCTTTTTTTTCTTTTCTGTTTGATTTGATTTGACGGAGTCACCTAGTGCAG,8940 fluorescence intensity (a.u.)
3,CTCTCTCTCTCTGCGTCCGTCCCTCCCTCGCTTGACTTCTCGGAGTCACCTAGTGCAG,9710 fluorescence intensity (a.u.)
4,CTTATGCTAAGTTGGGGTCGGGGAGACTGGGGAGCTTCTCCGGAGTCACCTAGTGCAG,13000 fluorescence intensity (a.u.)
5,TCAAGGGGCTGTTTGGTTGCTTCCCAAACGTTGCCACACTCGGAGTCACCTAGTGCAG,8760 fluorescence intensity (a.u.)
6,CATGCACTTTCTGACTGTAGAGTTTTCCATTAATTAGCCTCGGAGTCACCTAGTGCAG,8990 fluorescence intensity (a.u.)
7,CGATCCCGAGGCCGCCACCACCACCCACCCGCTTCTCCTCCGGAGTCACCTAGTGCAG,12600 fluorescence intensity (a.u.)
8,ACCCGCCCCTGCTGCTCACCGCTCCAGCCTCCGCTCATCCCGGAGTCACCTAGTGCAG,8790 fluorescence intensity (a.u.)
9,ATAGATAAAGTTTACTCGTGCCCGTTTGGGTTGTTTGATGCGGAGTCACCTAGTGCAG,9450 fluorescence intensity (a.u.)
10,ACATCTTCTTATTATTTTTTAAATTTTTTTCATATCCATTCGGAGTCACCTAGTGCAG,10800 fluorescence intensity (a.u.)
11,CCAACCGTTGACAAGTCTCATCGTACGTTTTTATTTAGAGCGGAGTCACCTAGTGCAG,8870 fluorescence intensity (a.u.)
12,TGATATGATTCTTCTTCTTCCTTTGGTTAATTGTCGTCTTCGGAGTCACCTAGTGCAG,8850 fluorescence intensity (a.u.)
13,CAACCTGCATACGCCATCTTGTTGTACTCGATCTGATCTCCGGAGTCACCTAGTGCAG,8560 fluorescence intensity (a.u.)
14,GGTTATGGTTCAATTCTAATGTTCCTTTGGTGTCACATTTCGGAGTCACCTAGTGCAG,8200 fluorescence intensity (a.u.)
15,CTTGCTACTGCATTGCAATTTGCATTATTTGAGGCCTACACGGAGTCACCTAGTGCAG,9280 fluorescence intensity (a.u.)
16,GGCTCGTCGCTGCCGCCTGTATGCTTCTTCCTTCCTTAGCCGGAGTCACCTAGTGCAG,8420 fluorescence intensity (a.u.)
17,AACAATCTAGGGTTCTACTGTTTTTTTCTGTTCTGGCTCGCGGAGTCACCTAGTGCAG,8800 fluorescence intensity (a.u.)
18,CTCCGTCGCCACGCTCGCCCTCCGCTTCTTTGCCCGCCGCCGGAGTCACCTAGTGCAG,8350 fluorescence intensity (a.u.)
19,TTTCGCTGCCACACACACACACACACAAACACAACGACCTCGGAGTCACCTAGTGCAG,10300 fluorescence intensity (a.u.)
20,ACAGTTCCGTACTTTTCAGTCTGGCGACAGTTTTTTTCATCGGAGTCACCTAGTGCAG,11500 fluorescence intensity (a.u.)
21,GCTTCGGCTCGGGGTGGGTTGGGTTGGGTTGGGTTCGATGCGGAGTCACCTAGTGCAG,32400 fluorescence intensity (a.u.)

# Some of the entries so far, bar-delimited.
row | Sequence | binding signal
5 | TCAAGGGGCTGTTTGGTTGCTTCCCAAACGTTGCCACACTCGGAGTCACCTAGTGCAG | 8760 fluorescence intensity (a.u.)
16 | GGCTCGTCGCTGCCGCCTGTATGCTTCTTCCTTCCTTAGCCGGAGTCACCTAGTGCAG | 8420 fluorescence intensity (a.u.)
17 | AACAATCTAGGGTTCTACTGTTTTTTTCTGTTCTGGCTCGCGGAGTCACCTAGTGCAG | 8800 fluorescence intensity (a.u.)

# The results go on:

row,Sequence,binding signal
1,CCCGTGCATGCTTGTGGAAGTCCCATTTCTCTCGCGACAACGGAGTCACCTAGTGCAG,12800 fluorescence intensity (a.u.)
2,GGCGGAGGGAGGGAGGGGAAGTCGGTGGTGAGGTGGCGTGCGGAGTCACCTAGTGCAG,12900 fluorescence intensity (a.u.)
3,TGATTTTTCGACAAATGTTTGACCTTTCGTCTTATTTAAACGGAGTCACCTAGTGCAG,8830 fluorescence intensity (a.u.)
4,TTCTGGATTGTTCGGCACCCTCGCTAATCCCTAAAGTTATCGGAGTCACCTAGTGCAG,10500 fluorescence intensity (a.u.)
5,AATGCCTGTTTTTGTACCTTTGGTAATATCGTCCAAATTTCGGAGTCACCTAGTGCAG,9150 fluorescence intensity (a.u.)
6,TTCCTTTCAAAGTCCAGTTTGTGTCCTTTCAATCGACCCTCGGAGTCACCTAGTGCAG,8740 fluorescence intensity (a.u.)
7,AATTATTTCACCTGTACCGTACTTACTTTCGGCCATTATTCGGAGTCACCTAGTGCAG,9340 fluorescence intensity (a.u.)
8,CAAAAACGACCATCTTATCCACCATAGCTATCGCTTCATGCGGAGTCACCTAGTGCAG,8300 fluorescence intensity (a.u.)
9,ACATCTCACATCTCGCACTCGCATCGCAGCTCCCAACTCCCGGAGTCACCTAGTGCAG,8680 fluorescence intensity (a.u.)
10,TTGCTCTGTTTTTCTATGTTGTCGTATTTTCGTCAGATACCGGAGTCACCTAGTGCAG,8240 fluorescence intensity (a.u.)
11,AAAAACTCTTTTCGATATACGGTCAAGCATCTGATATGACCGGAGTCACCTAGTGCAG,8230 fluorescence intensity (a.u.)
12,CACAAGCAAAATTATTTTCTTTTCTTTTTTGCAGTCAAATCGGAGTCACCTAGTGCAG,8060 fluorescence intensity (a.u.)
13,TTCGTGCCTTTTGTTTGATAATTTCTTCATGCTATCTTTTCGGAGTCACCTAGTGCAG,12800 fluorescence intensity (a.u.)
14,ATTTGTAGTTCCTCGGTTTGGTTTGATTTGGTGAGGCGGGCGGAGTCACCTAGTGCAG,8320 fluorescence intensity (a.u.)
15,TGCCAACGGCGCCACGCCACCAACCTCCGATCGATCGATCCGGAGTCACCTAGTGCAG,8370 fluorescence intensity (a.u.)
16,CCCGATTTATGCCGGCCCAGGGTGGGAGGGGCAAAGAATGCGGAGTCACCTAGTGCAG,8540 fluorescence intensity (a.u.)
17,ACCTGCCGTTATCCCACAACCCACCACTCCACCAGCTTTCCGGAGTCACCTAGTGCAG,8740 fluorescence intensity (a.u.)
18,GTCATGTCTACGTGTCGCGCTCCAGTTCGCCGCCCACCACCGGAGTCACCTAGTGCAG,9060 fluorescence intensity (a.u.)
19,CTGCCCTACGCCTAAACGATCCTCTTTCTGGGACAAACTCCGGAGTCACCTAGTGCAG,8950 fluorescence intensity (a.u.)
20,GATTTATATATAATCAGGACACCTTCTCTTCTCTTCTCTCCGGAGTCACCTAGTGCAG,8230 fluorescence intensity (a.u.)
21,GGGAGAGAGAGTACGGGACGGGAGGGGAGAGGGGAAAACGCGGAGTCACCTAGTGCAG,8920 fluorescence intensity (a.u.)
